# Assay results taken from article PMC5225165.
# No constants are given. Whether binding was seen depends on the method and setting. In cells and extracts the contact can be indirect. Some binding calls cover weakened binding; strength is not graded here.
# T1: inwardly rectifying K+ channel subtype Kir4.1 (mouse (endogenous in brain and optic nerve)) (UniProt Q9JM63)
# T1 sequence: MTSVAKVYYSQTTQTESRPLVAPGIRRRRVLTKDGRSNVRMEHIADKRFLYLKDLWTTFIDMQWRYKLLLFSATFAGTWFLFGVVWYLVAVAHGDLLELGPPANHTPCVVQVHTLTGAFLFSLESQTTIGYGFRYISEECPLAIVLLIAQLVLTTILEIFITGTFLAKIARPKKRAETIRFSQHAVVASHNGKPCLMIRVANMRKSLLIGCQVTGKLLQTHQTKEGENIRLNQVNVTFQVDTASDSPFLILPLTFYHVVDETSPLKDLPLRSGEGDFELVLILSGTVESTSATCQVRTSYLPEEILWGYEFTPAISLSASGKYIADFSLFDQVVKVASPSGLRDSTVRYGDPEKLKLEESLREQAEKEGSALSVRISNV
# T2: inwardly rectifying K+ channel subtype Kir5.1 (mouse (endogenous in brain and optic nerve)) (UniProt Q9Z307)
# T2 sequence: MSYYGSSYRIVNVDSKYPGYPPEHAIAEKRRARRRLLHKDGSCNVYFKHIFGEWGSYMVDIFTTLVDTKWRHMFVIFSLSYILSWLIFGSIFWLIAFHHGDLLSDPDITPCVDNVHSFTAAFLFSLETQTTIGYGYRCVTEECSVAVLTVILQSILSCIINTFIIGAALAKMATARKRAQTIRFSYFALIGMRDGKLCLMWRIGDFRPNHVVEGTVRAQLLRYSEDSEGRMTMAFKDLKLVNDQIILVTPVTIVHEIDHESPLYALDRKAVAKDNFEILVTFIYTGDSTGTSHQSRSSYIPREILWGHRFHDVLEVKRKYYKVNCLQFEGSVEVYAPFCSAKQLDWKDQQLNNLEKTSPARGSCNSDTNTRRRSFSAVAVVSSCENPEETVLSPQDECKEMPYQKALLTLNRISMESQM
# What was measured:
# [1] = target: T1, inwardly rectifying K+ channel subtype Kir4.1 (mouse (endogenous in brain and optic nerve)); assay: co-IP; total brain and optic nerve homogenates of adult wild type mice (P16-40); antibody overnight at 4 °C, Protein G MicroBeads (µMACS), washes in 150 mM NaCl, 1 % Triton X-100, 50 mM Tris HCl pH 8.0, then low-salt wash; western blot of the eluate; negative controls Kir4.1 knock-out tissue or antibody preabsorbed with blocking peptide
# [2] = target: T2, inwardly rectifying K+ channel subtype Kir5.1 (mouse (endogenous in brain and optic nerve)); assay: as above
binding [1],binding [2],Binder
binds,,"inwardly rectifying K+ channel subtype Kir5.1 (protein, UniProt Q9Z307 1-419) MSYYGSSYRIVNVDSKYPGYPPEHAIAEKRRARRRLLHKDGSCNVYFKHIFGEWGSYMVDIFTTLVDTKWRHMFVIFSLSYILSWLIFGSIFWLIAFHHGDLLSDPDITPCVDNVHSFTAAFLFSLETQTTIGYGYRCVTEECSVAVLTVILQSILSCIINTFIIGAALAKMATARKRAQTIRFSYFALIGMRDGKLCLMWRIGDFRPNHVVEGTVRAQLLRYSEDSEGRMTMAFKDLKLVNDQIILVTPVTIVHEIDHESPLYALDRKAVAKDNFEILVTFIYTGDSTGTSHQSRSSYIPREILWGHRFHDVLEVKRKYYKVNCLQFEGSVEVYAPFCSAKQLDWKDQQLNNLEKTSPARGSCNSDTNTRRRSFSAVAVVSSCENPEETVLSPQDECKEMPYQKALLTLNRISMESQM"
,binds,"inwardly rectifying K+ channel subtype Kir4.1 (protein, UniProt Q9JM63 1-379) MTSVAKVYYSQTTQTESRPLVAPGIRRRRVLTKDGRSNVRMEHIADKRFLYLKDLWTTFIDMQWRYKLLLFSATFAGTWFLFGVVWYLVAVAHGDLLELGPPANHTPCVVQVHTLTGAFLFSLESQTTIGYGFRYISEECPLAIVLLIAQLVLTTILEIFITGTFLAKIARPKKRAETIRFSQHAVVASHNGKPCLMIRVANMRKSLLIGCQVTGKLLQTHQTKEGENIRLNQVNVTFQVDTASDSPFLILPLTFYHVVDETSPLKDLPLRSGEGDFELVLILSGTVESTSATCQVRTSYLPEEILWGYEFTPAISLSASGKYIADFSLFDQVVKVASPSGLRDSTVRYGDPEKLKLEESLREQAEKEGSALSVRISNV"
